Laboratory results taken from publication PMC4694978.
These are yes or no findings as the source states them, for the method shown. Binding seen in cells or lysates may run through a third protein. Some binding calls cover weakened binding; strength is not graded here.

Amino acid sequences for entries named in this document (tags omitted).
UniProt O75679: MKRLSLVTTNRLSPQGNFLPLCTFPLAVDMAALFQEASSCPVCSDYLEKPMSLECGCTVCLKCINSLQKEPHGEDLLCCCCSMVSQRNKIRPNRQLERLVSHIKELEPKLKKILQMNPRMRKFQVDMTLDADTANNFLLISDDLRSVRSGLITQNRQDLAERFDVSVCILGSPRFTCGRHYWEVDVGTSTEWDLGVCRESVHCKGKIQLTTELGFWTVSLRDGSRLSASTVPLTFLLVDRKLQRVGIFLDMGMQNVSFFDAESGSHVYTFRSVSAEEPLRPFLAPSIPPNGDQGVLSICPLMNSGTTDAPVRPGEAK
UniProt Q92793: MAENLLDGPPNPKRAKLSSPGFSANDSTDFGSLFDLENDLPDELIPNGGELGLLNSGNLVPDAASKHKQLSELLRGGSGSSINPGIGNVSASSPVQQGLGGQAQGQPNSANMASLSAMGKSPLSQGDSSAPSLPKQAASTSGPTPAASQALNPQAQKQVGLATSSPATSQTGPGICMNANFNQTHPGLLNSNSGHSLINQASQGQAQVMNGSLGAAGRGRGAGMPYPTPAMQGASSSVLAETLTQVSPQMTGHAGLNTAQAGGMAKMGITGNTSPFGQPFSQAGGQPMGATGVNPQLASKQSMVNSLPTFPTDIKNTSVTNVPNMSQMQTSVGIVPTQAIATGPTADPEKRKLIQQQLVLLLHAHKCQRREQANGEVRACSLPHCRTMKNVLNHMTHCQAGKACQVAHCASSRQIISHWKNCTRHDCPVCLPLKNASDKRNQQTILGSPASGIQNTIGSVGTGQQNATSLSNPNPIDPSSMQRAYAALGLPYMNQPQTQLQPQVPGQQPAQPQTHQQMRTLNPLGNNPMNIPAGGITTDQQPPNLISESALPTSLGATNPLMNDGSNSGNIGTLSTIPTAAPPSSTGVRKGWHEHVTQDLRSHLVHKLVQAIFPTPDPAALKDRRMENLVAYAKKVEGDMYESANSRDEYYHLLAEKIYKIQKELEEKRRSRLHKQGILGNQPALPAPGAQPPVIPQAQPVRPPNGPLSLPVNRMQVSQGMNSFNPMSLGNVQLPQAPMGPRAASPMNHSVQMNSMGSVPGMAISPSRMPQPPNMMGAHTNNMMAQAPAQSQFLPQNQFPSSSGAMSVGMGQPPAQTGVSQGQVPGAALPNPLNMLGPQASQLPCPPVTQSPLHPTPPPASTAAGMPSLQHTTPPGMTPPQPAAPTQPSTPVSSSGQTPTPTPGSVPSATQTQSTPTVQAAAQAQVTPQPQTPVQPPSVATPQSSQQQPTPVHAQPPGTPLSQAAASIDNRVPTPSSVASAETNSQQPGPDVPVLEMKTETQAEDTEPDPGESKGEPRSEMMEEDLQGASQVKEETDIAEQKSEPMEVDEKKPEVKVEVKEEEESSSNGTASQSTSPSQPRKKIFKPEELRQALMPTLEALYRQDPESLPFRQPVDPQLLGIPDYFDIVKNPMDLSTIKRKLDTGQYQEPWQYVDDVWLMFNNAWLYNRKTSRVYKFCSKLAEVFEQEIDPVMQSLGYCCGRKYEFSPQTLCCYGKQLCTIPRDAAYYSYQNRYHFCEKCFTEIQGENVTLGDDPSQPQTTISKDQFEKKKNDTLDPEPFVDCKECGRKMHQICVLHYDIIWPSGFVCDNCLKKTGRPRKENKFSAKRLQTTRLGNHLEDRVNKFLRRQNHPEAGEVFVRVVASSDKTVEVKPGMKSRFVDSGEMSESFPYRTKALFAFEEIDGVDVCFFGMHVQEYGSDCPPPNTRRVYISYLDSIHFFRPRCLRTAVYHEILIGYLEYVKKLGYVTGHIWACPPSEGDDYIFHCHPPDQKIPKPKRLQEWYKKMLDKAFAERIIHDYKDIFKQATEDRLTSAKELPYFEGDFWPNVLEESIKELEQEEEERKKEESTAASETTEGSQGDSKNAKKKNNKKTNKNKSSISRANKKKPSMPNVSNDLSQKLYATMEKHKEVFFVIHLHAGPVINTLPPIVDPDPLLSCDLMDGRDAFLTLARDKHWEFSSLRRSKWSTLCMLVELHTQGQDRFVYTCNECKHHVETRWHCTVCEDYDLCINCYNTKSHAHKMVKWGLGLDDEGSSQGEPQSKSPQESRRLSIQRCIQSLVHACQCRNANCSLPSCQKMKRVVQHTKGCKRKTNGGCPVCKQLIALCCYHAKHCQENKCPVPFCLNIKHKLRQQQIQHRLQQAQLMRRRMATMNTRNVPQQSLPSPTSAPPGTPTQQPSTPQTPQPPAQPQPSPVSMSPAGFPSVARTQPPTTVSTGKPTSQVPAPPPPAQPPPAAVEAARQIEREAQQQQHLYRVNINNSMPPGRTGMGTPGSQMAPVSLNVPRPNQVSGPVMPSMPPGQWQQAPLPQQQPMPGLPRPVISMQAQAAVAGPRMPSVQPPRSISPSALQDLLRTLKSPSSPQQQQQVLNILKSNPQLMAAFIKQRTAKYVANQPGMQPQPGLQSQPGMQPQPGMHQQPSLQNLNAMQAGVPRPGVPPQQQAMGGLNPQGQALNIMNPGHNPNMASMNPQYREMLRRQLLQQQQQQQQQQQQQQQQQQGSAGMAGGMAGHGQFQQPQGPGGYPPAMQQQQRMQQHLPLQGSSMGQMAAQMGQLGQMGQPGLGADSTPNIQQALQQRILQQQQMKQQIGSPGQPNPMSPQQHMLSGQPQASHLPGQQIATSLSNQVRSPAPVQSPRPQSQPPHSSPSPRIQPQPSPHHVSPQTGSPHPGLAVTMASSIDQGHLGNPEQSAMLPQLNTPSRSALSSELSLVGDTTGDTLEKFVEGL

Biological target: RFPL3 (human (endogenous in H1299, H460, H322, A549)) (UniProt O75679)
Assay: co-IP; nuclear extracts of lung cancer cell lines incubated with rabbit polyclonal anti-RFPL3 antibody or non-immune rabbit IgG overnight at 4°C, protein-A/G agarose beads, washed with ice-cold PBS; immunoblot for CBP

## CREB binding protein (CBP) (from UniProt Q92793 1-2442)
  binding: binds
